A short description of this data set: general procedure: Fmoc solid-phase peptide synthesis; ChemMatrix Rink amide resin. The following applies: whole synthesis, scale of the general procedure 0.1 mmol.

End groups of sequences in plain letters are not given here. Strings that start with PEPTIDE1 are HELM notation: dots part the residues, brackets hold end groups and non-standard residues.

On to “PEPTIDE1{[ac].L.A.R.E.N.E.E.L.E.K.E.A.E.E.L.V.V.E.E.D.V.L.E.E.E.I.E.Q.L.E.E.R.N.Y.A.L.R.K.E.I.E.D.L.Q.K.Q.L.E.K.L.[am]}$$$$V2.0”, for which the difficulty met result was “HW2 and HW3 producing poor yields”.
On to “PEPTIDE1{[ac].L.E.K.E.A.E.E.L.V.V.E.E.D.V.L.E.E.E.I.E.Q.L.E.E.R.N.Y.A.L.R.K.E.I.E.D.L.Q.K.Q.L.E.K.L.[am]}$$$$V2.0”, for which the difficulty met entry is “HW2 and HW3 producing poor yields”.
Turning to “MASLEQRAEELARENEELEKEAEELVVEEDVLEEEIEQLEERNYALRKEIEDLQKQLEKLGAPHHHHHH”, the outcome is recorded as “HW1 proved to be inaccessible via solid-phase peptide synthesis (SPPS) using standard techniques”.

The record behind these values is PMC9582194 (Cell Reports. Physical Science, 2022).
